Test results published in US6319890A, “Inhibition of binding of complement Factor H” (priority 1996, dated 2001).
Part of at least one peptide drawing is inferred or uncertain, most often the ends. Where no end group is shown, it is not given here.

Amino acid sequences for entries named in this document (tags omitted). Residues count along the entry.
UniProt P03377, 621-645: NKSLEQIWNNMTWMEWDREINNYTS
UniProt P08603, 19-1231: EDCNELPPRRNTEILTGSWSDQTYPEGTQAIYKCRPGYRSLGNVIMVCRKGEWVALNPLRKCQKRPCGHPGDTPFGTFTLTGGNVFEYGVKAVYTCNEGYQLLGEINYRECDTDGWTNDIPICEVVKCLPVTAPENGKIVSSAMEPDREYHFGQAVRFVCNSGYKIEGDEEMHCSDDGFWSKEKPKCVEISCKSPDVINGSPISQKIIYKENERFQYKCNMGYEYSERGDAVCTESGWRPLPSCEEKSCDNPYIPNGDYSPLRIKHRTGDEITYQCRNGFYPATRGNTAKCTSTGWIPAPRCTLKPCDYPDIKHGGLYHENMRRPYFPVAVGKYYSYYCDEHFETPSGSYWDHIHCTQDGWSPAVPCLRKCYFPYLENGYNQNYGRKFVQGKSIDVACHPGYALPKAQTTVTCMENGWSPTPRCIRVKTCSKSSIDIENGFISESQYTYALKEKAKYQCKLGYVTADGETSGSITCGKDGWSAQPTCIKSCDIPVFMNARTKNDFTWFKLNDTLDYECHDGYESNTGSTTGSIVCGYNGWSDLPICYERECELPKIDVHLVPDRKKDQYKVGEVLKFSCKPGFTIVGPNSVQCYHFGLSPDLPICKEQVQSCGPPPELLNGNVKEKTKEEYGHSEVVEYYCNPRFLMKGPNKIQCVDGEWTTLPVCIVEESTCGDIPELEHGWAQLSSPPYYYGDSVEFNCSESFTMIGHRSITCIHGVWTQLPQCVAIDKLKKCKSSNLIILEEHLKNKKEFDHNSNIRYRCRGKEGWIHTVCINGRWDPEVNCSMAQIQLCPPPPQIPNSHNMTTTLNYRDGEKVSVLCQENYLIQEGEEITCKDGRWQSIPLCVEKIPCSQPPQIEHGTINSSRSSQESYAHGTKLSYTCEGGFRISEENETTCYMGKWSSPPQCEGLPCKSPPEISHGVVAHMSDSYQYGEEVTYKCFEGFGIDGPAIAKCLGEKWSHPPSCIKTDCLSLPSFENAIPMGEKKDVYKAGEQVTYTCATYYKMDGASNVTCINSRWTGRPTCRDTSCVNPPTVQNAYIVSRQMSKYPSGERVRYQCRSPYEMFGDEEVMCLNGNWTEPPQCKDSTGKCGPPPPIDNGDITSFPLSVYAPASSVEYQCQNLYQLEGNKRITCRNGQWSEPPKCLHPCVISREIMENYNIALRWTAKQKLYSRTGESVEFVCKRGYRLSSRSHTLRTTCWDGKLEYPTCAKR

What was measured:
[1] = target: T1, binding of peptide A to HIV-derived target peptides #SA2, #12, #18 (Human immunodeficiency virus type 1 group M subtype B, UniProt P03377); assay: Competition of the binding of biotin-labelled peptide A to HIV-derived peptides
T1 construct: His Glu Asp Ile Ile Ser Leu Trp Asp Gln Ser Leu Lys Pro Cys, Env; 105-119; Ile Asn Asn Thr Tyr THr Ser, Env; 621-645; Leu Asp Lys Trp Ala Ser, Env; 650-673; made in house; host or cells: chemical synthesis (synthetic peptides)
From the text: This interaction was competed by peptide A itself, by the envelope peptides #SA2 Sequence I.D. #20, #12 Sequence I.D. #22 and #18 Sequence I.D. #21 but not by peptide #53 Sequence I.D. […]. Therefore, the three HIV-derived peptides seem to share functional homology with respect to the interaction with CFH since they all bind to the same region on SEQ. ID NO: 1.

CFH = CFH (Homo sapiens, UniProt P08603); conditions: described in earlier publications of Pinter et al.; cited from earlier work

| Molecule | competition of the binding of biotin-labelled peptide A to HIV-derived peptides [1] | CFH binding to the HIV envelope peptide (CFH) |
| --- | --- | --- |
| CC[C@H](C)[C@H](NC(=O)[C@H](CC(=O)O)NC(=O)[C@H](CCC(=O)O)NC(=O)[C@@H](N)Cc1c[nH]cn1)C(=O)N[C@H](C(=O)N[C@@H](CO)C(=O)N[C@@H](CC(C)C)C(=O)N[C@@H](Cc1c[nH]c2ccccc12)C(=O)N[C@@H](CC(=O)O)C(=O)N[C@@H](CCC(N)=O)C(=O)N[C@@H](CO)C(=O)N[C@@H](CC(C)C)C(=O)N[C@@H](CCCCN)C(=O)N1CCC[C@H]1C(=O)N[C@@H](CS)C(=O)O)[C@@H](C)CC [#SA2, His Glu Asp Ile Ile Ser Leu Trp Asp Gln Ser Leu Lys Pro Cys] | competed | target of CFH binding |
| ARQLLSGIVQQQNNLLRAIEAQQHL [#53] | not | no CFH binding |
| LIEESQNQQEKNEQELLELDKWAS [#12] | competed | targets of CFH binding |
